# Test results taken from the supplement of paper PMC8728848.
# This is one part of the list.
# Tests used:
# Assay in all cases: glycan array binding signal (z-score within array); higher = stronger binding
# Details in all cases: glycan notation: IUPAC condensed, linker removed
# [1] = biological target: Neu5Ac(a2-3)Gal6S(b1-4)[Fuc(a1-3)]GlcNAc
# Procedure, shortened: (§1)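 Negative Z-scores can be read as non-binding. The Z-score is calculated within each array and then averaged across arrays of one protein sequence at different concentrations or buffers and across linkers. Arrays, 3228 in all, were curated from the Consortium for Functional Glycomics database and kept only where the protein sequence was available.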
# Neu5Ac(a2-3)GalNAc = biological target: Neu5Ac(a2-3)GalNAc
# Procedure, shortened: as §1
# [2] = biological target: Neu5Ac(a2-3)GalNAc(b1-4)GlcNAc
# Procedure, shortened: as §1
# [3] = biological target: Neu5Ac(a2-3)[GalNAc(b1-4)]Gal(b1-4)Glc
# Procedure, shortened: as §1
# [4] = biological target: Neu5Ac(a2-3)[GalNAc(b1-4)]Gal(b1-4)GlcNAc
# Procedure, shortened: as §1
# [5] = biological target: Neu5Ac(a2-3)[GalNAc(b1-4)]Gal(b1-4)GlcNAc(b1-3)GalNAc
# Procedure, shortened: as §1
# [6] = biological target: Neu5Ac(a2-3)[Neu5Ac(a2-6)]GalNAc
# Procedure, shortened: as §1
# Neu5Ac(a2-6)Gal = biological target: Neu5Ac(a2-6)Gal
# Procedure, shortened: as §1
# Neu5Ac(a2-6)Gal(b1-4)Glc = biological target: Neu5Ac(a2-6)Gal(b1-4)Glc
# Procedure, shortened: as §1
# [7] = biological target: Neu5Ac(a2-6)Gal(b1-4)GlcNAc
# Procedure, shortened: as §1
# [8] = biological target: Neu5Ac(a2-6)Gal(b1-4)GlcNAc(b1-2)Man(a1-3)Man(b1-4)GlcNAc(b1-4)GlcNAc
# Procedure, shortened: as §1
# [9] = biological target: Neu5Ac(a2-6)Gal(b1-4)GlcNAc(b1-2)Man(a1-3)[Gal(b1-4)GlcNAc(b1-2)Man(a1-6)]Man(b1-4)GlcNAc(b1-4)GlcNAc
# Procedure, shortened: as §1
# [10] = biological target: Neu5Ac(a2-6)Gal(b1-4)GlcNAc(b1-2)Man(a1-3)[GlcNAc(b1-2)Man(a1-6)]Man(b1-4)GlcNAc(b1-4)GlcNAc
# Procedure, shortened: as §1
# [11] = biological target: Neu5Ac(a2-6)Gal(b1-4)GlcNAc(b1-2)Man(a1-3)[GlcNAc(b1-2)Man(b1-4)GlcNAc(b1-2)Man(a1-6)]Man(b1-4)GlcNAc(b1-4)GlcNAc
# Procedure, shortened: as §1
# [12] = biological target: Neu5Ac(a2-6)Gal(b1-4)GlcNAc(b1-2)Man(a1-3)[Man(a1-6)]Man(b1-4)GlcNAc(b1-4)GlcNAc
# Procedure, shortened: as §1
# [13] = biological target: Neu5Ac(a2-6)Gal(b1-4)GlcNAc(b1-2)Man(a1-3)[Neu5Ac(a2-6)Gal(b1-4)GlcNAc(b1-2)Man(a1-6)]Man(b1-4)GlcNAc(b1-4)GlcNAc
# Procedure, shortened: as §1
# [14] = biological target: Neu5Ac(a2-6)Gal(b1-4)GlcNAc(b1-2)Man(a1-6)Man(b1-4)GlcNAc(b1-4)GlcNAc
# Procedure, shortened: as §1
# [15] = biological target: Neu5Ac(a2-6)Gal(b1-4)GlcNAc(b1-2)Man(a1-6)[Gal(b1-4)GlcNAc(b1-2)Man(a1-3)]Man(b1-4)GlcNAc(b1-4)GlcNAc
# Procedure, shortened: as §1
# [16] = biological target: Neu5Ac(a2-6)Gal(b1-4)GlcNAc(b1-2)Man(a1-6)[GlcNAc(b1-2)Man(a1-3)]Man(b1-4)GlcNAc(b1-4)GlcNAc
# Procedure, shortened: as §1
# [17] = biological target: Neu5Ac(a2-6)Gal(b1-4)GlcNAc(b1-2)Man(a1-6)[Man(a1-3)]Man(b1-4)GlcNAc(b1-4)GlcNAc
# Procedure, shortened: as §1
# [18] = biological target: Neu5Ac(a2-6)Gal(b1-4)GlcNAc(b1-3)Gal(b1-3)GlcNAc
# Procedure, shortened: as §1
# [19] = biological target: Neu5Ac(a2-6)Gal(b1-4)GlcNAc(b1-3)Gal(b1-4)GlcNAc
# Procedure, shortened: as §1
# [20] = biological target: Neu5Ac(a2-6)Gal(b1-4)GlcNAc(b1-3)Gal(b1-4)GlcNAc(b1-3)Gal(b1-4)GlcNAc
# Procedure, shortened: as §1
# [21] = biological target: Neu5Ac(a2-6)Gal(b1-4)GlcNAc(b1-3)Gal(b1-4)[Fuc(a1-3)]GlcNAc(b1-3)Gal(b1-4)[Fuc(a1-3)]GlcNAc
# Procedure, shortened: as §1
# [22] = biological target: Neu5Ac(a2-6)Gal(b1-4)GlcNAc(b1-3)GalNAc
# Procedure, shortened: as §1
binder,measurement,setting,value
"SRS6 (Toxoplasma gondii), Q9NH12 (protein) MARTGSMQQRRGGFQTTARMLMAVCVSGVLLLSSGPSSANKLTEGQQNQNSGPGAATQEGPTIEGAVAKCVLKTTAAENGSSRAKNTTGLTLSKENLVVSLQCSGEKNAIVPKDQKKVCSAAPNAKVADCKGADTDKQVTLKSLLGTSGDIQWEKTIVSTDNKGEVMTLKIKESELPLFDKAFFVGCEEDKAQTRTSQATECKVNVSVKARPSTVGENNVVTCAYGKDSNPRPLEVEMSADNDTLTIDCGTDGSLKPTKYTEEFCVTDNSQLESCTTKKFSEILPTFLPSWWVSDSQNGSAKLTIPESGFPEEQQQFRLGCVPKKTTQSPQANPSVKTEKEEGAQNTDASTSNCSVIVTVKASNFSSLASSIAPTAAVAGGAAALTGFLVGSF",glycan array binding signal (z-score),[1],0.557
same,glycan array binding signal (z-score),Neu5Ac(a2-3)GalNAc,-0.337
same,glycan array binding signal (z-score),[2],-0.177
same,glycan array binding signal (z-score),[3],-0.162
same,glycan array binding signal (z-score),[4],-0.041
same,glycan array binding signal (z-score),[5],-1.14
same,glycan array binding signal (z-score),[6],0.265
same,glycan array binding signal (z-score),Neu5Ac(a2-6)Gal,0.288
same,glycan array binding signal (z-score),Neu5Ac(a2-6)Gal(b1-4)Glc,0.098
same,glycan array binding signal (z-score),[7],-0.11
same,glycan array binding signal (z-score),[8],1.02
same,glycan array binding signal (z-score),[9],0.579
same,glycan array binding signal (z-score),[10],-0.395
same,glycan array binding signal (z-score),[11],0.178
same,glycan array binding signal (z-score),[12],0.862
same,glycan array binding signal (z-score),[13],0.976
same,glycan array binding signal (z-score),[14],1.02
same,glycan array binding signal (z-score),[15],-0.684
same,glycan array binding signal (z-score),[16],-0.168
same,glycan array binding signal (z-score),[17],0.253
same,glycan array binding signal (z-score),[18],-0.336
same,glycan array binding signal (z-score),[19],-0.533
same,glycan array binding signal (z-score),[20],-0.211
same,glycan array binding signal (z-score),[21],-0.419
same,glycan array binding signal (z-score),[22],-0.452

# Two records picked at random from the list so far, as already listed:
binder,measurement,setting,value
"SRS6 (Toxoplasma gondii), Q9NH12 (protein) MARTGSMQQRRGGFQTTARMLMAVCVSGVLLLSSGPSSANKLTEGQQNQNSGPGAATQEGPTIEGAVAKCVLKTTAAENGSSRAKNTTGLTLSKENLVVSLQCSGEKNAIVPKDQKKVCSAAPNAKVADCKGADTDKQVTLKSLLGTSGDIQWEKTIVSTDNKGEVMTLKIKESELPLFDKAFFVGCEEDKAQTRTSQATECKVNVSVKARPSTVGENNVVTCAYGKDSNPRPLEVEMSADNDTLTIDCGTDGSLKPTKYTEEFCVTDNSQLESCTTKKFSEILPTFLPSWWVSDSQNGSAKLTIPESGFPEEQQQFRLGCVPKKTTQSPQANPSVKTEKEEGAQNTDASTSNCSVIVTVKASNFSSLASSIAPTAAVAGGAAALTGFLVGSF",glycan array binding signal (z-score),[2],-0.177
same,glycan array binding signal (z-score),[20],-0.211
